# Reference: US20100239588A1 (SHANGHAI NATIONAL ENGINEERING RESEARCH CENTER OF ANTIBODY …, published 2010)
# Amino acid sequences for entries named in this document (tags omitted). Residues count along the entry.
# UniProt P10923, residues 17-294: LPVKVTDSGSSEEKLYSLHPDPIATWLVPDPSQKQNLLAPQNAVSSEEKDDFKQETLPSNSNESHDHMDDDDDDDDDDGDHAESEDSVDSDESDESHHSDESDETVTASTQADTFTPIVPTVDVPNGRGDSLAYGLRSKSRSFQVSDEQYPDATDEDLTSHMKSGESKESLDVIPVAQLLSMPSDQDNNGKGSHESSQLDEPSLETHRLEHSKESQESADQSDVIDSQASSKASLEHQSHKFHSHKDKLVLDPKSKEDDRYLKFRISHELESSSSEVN
# No constants are given. Whether binding was seen depends on the method and setting. Some binding calls cover weakened binding; strength is not graded here.
# Target: mouse OPN protein (mouse) (UniProt P10923)
# Assay: western blot
binder,measurement,value
"mouse anti-human OPN monoclonal antibody 23C3 (antibody, V domains shown, also called 23C3 mAb; 23C3 monoclonal antibody) VH: EVQLVESGGGLVQPKGSLKISCAASGFTFNIYAMNWVRQAPGKGLEWVARIRSQSNNYTTYYADSVKDRFTISRDDSQSMLYLQMNNLKTEDTAMYYCVRQMGDYWGQGTTLTVSS VL: YIQMTQSPASLSVSVGETVTITCRASENIYSFLAWYQQKQGKSPQLLVYAATNLADGVPSRFSGSGSGTQFSLKINSLQSEDFGTYYCQHFWGTPFTFGSGTKLEIKR",binding,binds
